Results are given in words; binding and its absence hold for the method and conditions named.

Protein sequences, listed by entry. Tags and fused reporters are not part of them.
UniProt P15064: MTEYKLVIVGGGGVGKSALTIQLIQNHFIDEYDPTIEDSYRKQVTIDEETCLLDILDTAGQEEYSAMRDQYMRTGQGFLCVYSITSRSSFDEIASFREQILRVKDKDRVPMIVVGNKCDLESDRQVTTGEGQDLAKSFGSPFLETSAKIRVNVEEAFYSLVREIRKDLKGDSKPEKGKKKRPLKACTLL

This assay concerns the target RasG loaded with mGppNHp (UniProt P15064). Briefly: GDI (guanine nucleotide dissociation inhibition) assay, fluorescence; mGppNHp labelled G-protein with indicated amounts of RA-TalB, 200 fold excess of GppNHp, 25 °C; 50 mM Tris-HCl pH 7.5, 5 mM MgCl2, 50 mM NaCl, 5 mM DTE; Kd from dependence of kobs on RA-TalB concentration; both purified.

B1: Dictyostelium RA-TalB domain (residues 1-122) (domain or fragment, UniProt Q54K81 1-122)
chain: MSLTLKIQIVRDKQVKAMKFSPTQTVAEVCAQVREKINETSGDDHGLFQPGIDAKRPSRWLKMDKTLQFYDLKINDELDYKKKHRPLKVRLMDETVKTMLVDDSLTAGEILEIIGKRIGIKN
B1: the binding result is given as “no binding (tested: 100 μM)”.

Values taken from publication PMC4861126.
